Data as given in PubChem BioAssay AID1259308 (NCATS, 2017)
In all, the deposit lists about 59,000 reagents; below is an unselected part. Of all reagents, about 1,510 (2.6%) got an active call. 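Calls use total luciferase alone and ignore viability, so some active siRNAs may act by altering cell number.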 Reagents against one gene are numbered here.

- Assay: 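Genes whose loss raises luciferase production in HEK293 cells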 (primary screen)
- System: human HEK293 embryonic kidney cells stably expressing firefly luciferase (HEK-CMV-Luc2-Hygro)
- Reagents: single siRNA against human genes, 0.8 pmol siRNA per well
- Timing: 72 h
- Detection: 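Reporter luminescence and viable-cell signal on separate replicate plates, given as percent of non-targeting control and median/MAD z-scores, plus per-cell luciferase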
- Reading the numbers: total luciferase, z-score and total luciferase, % of control: higher = more reporter protein produced; luciferase per cell, z-score: higher = more reporter output per viable cell; viable cells, % of control: higher = more viable cells
- Call rule: 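An siRNA counts as active if its total luciferase robust z-score exceeds 3; genes with two or more such siRNAs out of three were retested with fresh siRNAs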
- Calls: active = raised luciferase; inactive = no rise

The first 2 records, to show the layout:
gene knocked down,reagent no.,"total luciferase, z-score","total luciferase, % of control","luciferase per cell, z-score","viable cells, % of control",call
SVEP1,1,1.57,113,1.03,96.3,inactive
SVEP1,2,-0.0363,81.2,-0.5,103,inactive

The list itself, from the start:
gene knocked down,reagent no.,"total luciferase, z-score","total luciferase, % of control","luciferase per cell, z-score","viable cells, % of control",call
SVEP1,1,1.57,113,1.03,96.3,inactive
SVEP1,2,-0.0363,81.2,-0.5,103,inactive
SVEP1,3,-1.37,54.5,-0.404,67.8,inactive
TENT5D,1,0.542,92.7,0.496,90.9,inactive
TENT5D,2,-0.543,71.1,0.259,74.2,inactive
TENT5D,3,2.12,124,1.52,92.9,inactive
LINC02027,1,-0.319,75.5,-0.123,87.2,inactive
LINC02027,2,0.304,87.9,0.995,75.6,inactive
LINC02027,3,2.18,125,1.93,84.3,inactive
MON2,1,-0.712,67.7,-0.526,86.9,inactive
MON2,2,-1.01,61.9,-1.38,99.4,inactive
MON2,3,0.261,87.1,0.378,88.1,inactive
RGPD2,1,0.0134,82.2,-0.132,95.1,inactive
RGPD2,2,-0.757,66.8,-0.672,89.1,inactive
RGPD2,3,1.41,110,0.791,99.7,inactive
TMEM127,1,-1.05,61.1,0.477,60.2,inactive
TMEM127,2,0.975,101,0.187,108,inactive
TMEM127,3,-0.709,67.8,-0.702,91.1,inactive
H3-3A,1,0.561,93,0.672,87.1,inactive
H3-3A,2,1.67,115,2.33,69.6,inactive
H3-3A,3,0.546,92.7,0.17,99.1,inactive
MACROD2,1,0.831,98.4,2.86,51.8,inactive
MACROD2,2,1.4,110,0.653,103,inactive
MACROD2,3,1.07,103,1.25,82.9,inactive
ROPN1,1,-0.602,69.9,0.242,73.3,inactive
ROPN1,2,2.12,124,2.03,81.3,inactive
ROPN1,3,-0.862,64.7,-1.17,98.4,inactive
LYPD3,1,0.219,86.3,0.991,74.2,inactive
LYPD3,2,2.58,133,1.6,97.6,inactive
LYPD3,3,-0.429,73.4,0.794,66.5,inactive
THOC1,1,-0.474,72.5,-0.467,91.6,inactive
THOC1,2,-1.18,58.3,-1.64,100,inactive
THOC1,3,-0.677,68.4,-1.4,110,inactive
CLEC10A,1,-1.7,48.1,-1.29,75.5,inactive
CLEC10A,2,-0.965,62.7,-0.938,89.7,inactive
CLEC10A,3,0.235,86.6,-0.301,105,inactive
ZFP92,1,0.583,93.5,0.114,101,inactive
ZFP92,2,0.308,88,0.415,88.2,inactive
ZFP92,3,0.681,95.4,0.169,102,inactive
TCF4,1,-1.04,61.3,-1.74,108,inactive
TCF4,2,0.864,99.1,0.648,93.3,inactive
TCF4,3,0.316,88.2,0.315,90.7,inactive
CSPG4,1,-0.461,72.7,-0.193,85.5,inactive
CSPG4,2,-0.642,69.1,-0.812,95.7,inactive
CSPG4,3,2.04,123,1.95,81.8,inactive
SLC5A3,1,0.919,100,1.25,80.4,inactive
SLC5A3,2,-0.0232,81.4,-0.42,102,inactive
SLC5A3,3,-0.45,72.9,-0.556,94.3,inactive
CHST12,1,-1.84,45.2,-1.27,70.6,inactive
CHST12,2,-1.85,45,-1.34,71.6,inactive
CHST12,3,-0.199,77.9,-0.272,93.5,inactive
SERPINH1,1,-0.756,66.8,-1.35,107,inactive
SERPINH1,2,-0.0419,81.1,1.01,69.4,inactive
SERPINH1,3,-1.19,58.3,-1.72,102,inactive
MRPL32,1,-0.0571,80.8,0.23,84.9,inactive
MRPL32,2,-0.11,79.7,-0.182,93.4,inactive
MRPL32,3,0.0317,82.5,0.178,88,inactive
